Laboratory results taken from patent US20230338363A1, “COMBINATION CHEMO-IMMUNOTHERAPY FOR PANCREATIC CANCER USING THE IMMUNOGENIC EFFECTS OF AN IRINOTECAN SILICASOME NANOCARRIER PLUS ANTI-PD-1” (The Regents of the University of California, priority 2020, published 2023).
At least one compound was matched to its structure with a doubt left.

Test system: KPC cells
Assay: Autophagy (LC3B, p62) and PD-L1 expression by IF staining and immunoblotting
Format: cell-based, mouse
Settings: 24 h; IRIN 300 µM, CQ 32 µM, RAP 100 nM
Method: KPC cells were seeded in the µ-Slide 8 well. After cell attachment, the cells were treated by IRIN at 300 µM for 24 h. Control treatments included exposure to PBS, chloroquine (32 µM), rapamycin (100 nM) and IFN-γ (10 ng/ml). Before IF staining, the cells were washed with PBS and fixed with 4% paraformaldehyde at RT for 15 minutes. Cells were treated in 1% BSA (blocking reagent) plus 0.2% triton-X100 in PBS for 30 minutes. Subsequently, the cells were incubated with primary antibody that recognizes LC3B (Cell Signaling #2775, 1:200) or p62/SQSTM1 (Cell Signaling #23214, 1:800) in 1% BSA containing PBS solution at 4° C. overnight. The sample was washed twice in PBS and further stained using an Alexa Fluor® 488 conjugated goat anti-rabbit secondary antibody (Thermo Fisher, A-11008, 1:1000) and 5 µg/mL Hoechst 33342 dye for 1 h. […]
To confirm the confocal staining results for LC3B, p62 and PD-L1, western blotting experiments were performed in KPC cells exposed to IRIN (300 µM) or OX (500 µM) for 24 hr. […] After centrifugation of the lysates at 12,000 rpm for 10 min, protein concentration was quantified by a Bradford assay (Biorad). […] Densitometric analysis of each protein band on the film was quantified by ImageJ software and normalized to the intensity of a corresponding housekeeping protein. […]

CO[C@H]1C[C@@H]2CC[C@@H](C)[C@@](O)(O2)C(=O)C(=O)N2CCCC[C@H]2C(=O)O[C@H]([C@H](C)C[C@@H]2CC[C@@H](O)[C@H](OC)C2)CC(=O)[C@H](C)/C=C(\C)[C@@H](O)[C@@H](OC)C(=O)[C@H](C)C[C@H](C)/C=C/C=C/C=C/1C [rapamycin]
IF staining of LC3B and p62/SQSTM1 complexes: LC3B assembly without p62 accumulation
